The list shows only some results of the screen, not a fair sample: it is rich in T/C values a quarter to a half above the control, in often repeated tests (any T/C) and in doses without a T/C. Further doses and runs are listed elsewhere. T/C: endpoint of the treated group in % of that of the vehicle group. Some doses have a count of surviving animals in place of a T/C: the source holds a T/C of zero for them, seemingly a mark for toxic or unscored doses. Some doses without a T/C left all or most animals alive at the check, yet need not have been tolerated: the source hardly ever lists a survival T/C far under the control, and the zero likely stands for such cases as well. Survivors were counted at the toxicity check, usually on the fifth day, unless a day is given; later deaths do not show. Schedules are NCI's codes, read here as Q, the interval in days (D) or hours (H), X, the number of doses. Some doses were run more than once; their values stand side by side, smallest first. Some molecules as drawn cover several salts, stereoisomers or complexes of the source; a dose is that of the sample tested. Counts like (3×) say how often a value occurs here. Where survival is the endpoint, this PubChem deposit counts one and a half times the control or more as active, and values a quarter to a half above the control carry no call in these data; other NCI protocols may use other cut-offs. Some T/C values carry the count of animals alive at the toxicity check (mostly the fifth day); without a count, all were alive then. *1 amine or outer side, *2 acyl side, *3 side chain or, on linkers, in order; H or OH if unused. Where a SMILES comes first, the peptide text is derived from it. Bridges are numbered along the chain shown (N, C = ends). Roman numbers before positions name the chains, in order. [ ]: non-standard residue; d: D form. Actinocin(9to1) = Cc1c2oc3c(C)ccc(C(=O)[*:1])c3nc-2c(C(=O)[*:2])c(N)c1=O; aThr = C[C@H](O)[C@H](N)C(=O)O; NMeV = CN[C@H](C(=O)O)C(C)C; Sar = CNCC(=O)O
Tested on: BDF1 mice, B16 melanoma s.c., survival/tumor T/C
Assay: NCI In Vivo Anticancer Drug Screen. Data for tumor model B16 Melanoma (subcutaneous) in B6D2F1 (BDF1) mice
Conditions: T/C endpoint: median survival time, higher T/C = longer survival
Procedure: The antitumor activity of compounds was measured in mice bearing transplantable tumors. Survival or tumor size were measured and the results are expressed as the measurement made in the treated group (T) divided by the measurement made in the vehicle treated control group (C). The tumor model used in this assay is B16 Melanoma (subcutaneous) in B6D2F1 (BDF1) mice

[1] = dose: 2.0 mg/kg/injection, schedule: Q01DX009 (ip), vehicle: saline
[2] = dose: 25.0 micrograms/kg/injection, schedule: Q01DX009 (ip), vehicle: saline
[3] = dose: 50.0 micrograms/kg/injection, schedule: Q01DX009 (ip), vehicle: saline
[4] = dose: 100.0 micrograms/kg/injection, schedule: Q01DX009 (ip), vehicle: saline
[5] = dose: 160.0 mg/kg/injection, schedule: Q01DX009 (ip), vehicle: water

Q: For `COc1cccc2c1C(=O)c1c(O)c3c(c(O)c1C2=O)C[C@@](O)(C(=O)CO)C[C@@H]3OC1CC(N)C(O)C(C)O1` (some centres undefined), which T/C (dose: 0.25 mg/kg/injection, schedule: Q01DX009 (ip), vehicle: saline) is on record?
A: 98 (2×), 103, 112, 121 % of control [9 of 10 alive]

Q: What about the T/C (dose: 0.5 mg/kg/injection, schedule: Q01DX009 (ip), vehicle: saline) of the same molecule?
A: 104, 116 (2×), 117, 129 % of control

Q: And the survivor count (dose: 1.0 mg/kg/injection, schedule: Q01DX009 (ip), vehicle: other)?
A: 10 of 10

Q: What about the T/C (dose: 1.0 mg/kg/injection, schedule: Q01DX009 (ip), vehicle: saline) of the same molecule?
A: 104, 110, 111, 125, 143 % of control

Q: What about the survivor count (dose: 2.0 mg/kg/injection, schedule: Q01DX009 (ip), vehicle: other) of the same molecule?
A: 10 of 10

Q: And the T/C [1]?
A: 117 % of control

Q: And the survivor count [1]?
A: 9 of 10 and 10 of 10

Q: And the survivor count (dose: 2.5 mg/kg/injection, schedule: Q01DX008 (ip), vehicle: saline)?
A: 5 of 10

Q: What about the survivor count (dose: 4.0 mg/kg/injection, schedule: Q01DX009 (ip), vehicle: saline) of the same molecule?
A: 10 of 10

Q: What about the survivor count (dose: 8.0 mg/kg/injection, schedule: Q01DX009 (ip), vehicle: saline) of the same molecule?
A: 3 of 10

Q: `Cc1c2oc3c(C)ccc(C(=O)N[C@@H]4C(=O)N[C@H](C(C)C)C(=O)N5CCC[C@H]5C(=O)N(C)CC(=O)N(C)[C@@H](C(C)C)C(=O)O[C@H]4C)c3nc-2c(C(=O)N[C@@H]2C(=O)N[C@H](C(C)C)C(=O)N3CCC[C@H]3C(=O)N(C)CC(=O)N(C)[C@@H](C(C)C)C(=O)O[C@H]2C)c(N)c1=O` (I: [aThr][dV]P[Sar][NMeV] / II: [aThr][dV]P[Sar][NMeV]; ester I:1-I:C, II:1-II:C; linker I:N-II:N via Actinocin(9to1)) was tested. Which T/C (dose: 13.0 micrograms/kg/injection, schedule: Q01DX009 (ip), vehicle: saline) did it give?
A: 87, 104, 110, 114, 135, 136, 143 % of control

Q: And the T/C [2]?
A: 98, 111, 112, 119, 134, 143 % of control

Q: What about the survivor count [2] of the same molecule?
A: 6 of 6

Q: What about the T/C [3] of the same molecule?
A: 95, 98, 110, 132 [5 of 6 alive], 136 % of control

Q: And the survivor count [3]?
A: 5 of 6

Q: What about the T/C [4] of the same molecule?
A: 112 and 118 % of control

Q: And the survivor count [4]?
A: 0 of 6, 2 of 6, 6 of 6

Q: With `OC(CBr)C(O)C(O)C(O)CBr` (centres undefined) as the molecule, how does the T/C (dose: 75.0 mg/kg/injection, schedule: Q01DX009 (ip), vehicle: Klucel (hydroxypropylcellulose) (HPC)) read?
A: 136 % of control [9 of 10 alive]

Q: And the T/C (dose: 80.0 mg/kg/injection, schedule: Q01DX009 (ip), vehicle: Klucel (hydroxypropylcellulose) (HPC))?
A: 130 % of control

Q: What about the survivor count (dose: 160.0 mg/kg/injection, schedule: Q01DX009 (ip), vehicle: Klucel (hydroxypropylcellulose) (HPC)) of the same molecule?
A: 10 of 10

Q: And the survivor count (dose: 300.0 mg/kg/injection, schedule: Q01DX009 (ip), vehicle: Klucel (hydroxypropylcellulose) (HPC))?
A: 9 of 10

Q: What about the survivor count (dose: 320.0 mg/kg/injection, schedule: Q01DX009 (ip), vehicle: Klucel (hydroxypropylcellulose) (HPC)) of the same molecule?
A: 10 of 10

Q: What about the survivor count (dose: 480.0 mg/kg/injection, schedule: Q01DX009 (ip), vehicle: Klucel (hydroxypropylcellulose) (HPC)) of the same molecule?
A: 10 of 10

Q: What about the survivor count (dose: 500.0 mg/kg/injection, schedule: Q01DX009 (ip), vehicle: Klucel (hydroxypropylcellulose) (HPC)) of the same molecule?
A: 9 of 10

Q: What about the survivor count (dose: 600.0 mg/kg/injection, schedule: Q01DX009 (ip), vehicle: Klucel (hydroxypropylcellulose) (HPC)) of the same molecule?
A: 10 of 10

Q: And the survivor count (dose: 1000.0 mg/kg/injection, schedule: Q01DX009 (ip), vehicle: Klucel (hydroxypropylcellulose) (HPC))?
A: 7 of 10

Q: For `O=NN(CCF)C(=O)NC1CCS(=O)(=O)CC1`, which T/C (dose: 43.0 mg/kg/injection, schedule: Q01DX001 (ip), vehicle: other) is on record?
A: 136 % of control [9 of 10 alive]

Q: Which survivor count (dose: 10.0 mg/kg/injection, schedule: Q01DX009 (ip), vehicle: water) does the source give for `O=C(O)CCC(=O)O` here?
A: 10 of 10

Q: What about the T/C (dose: 20.0 mg/kg/injection, schedule: Q01DX009 (ip), vehicle: water) of the same molecule?
A: 133 and 137 % of control

Q: And the T/C (dose: 80.0 mg/kg/injection, schedule: Q01DX009 (ip), vehicle: water)?
A: 141 % of control

Q: And the T/C [5]?
A: 133 % of control

Q: And the survivor count [5]?
A: 7 of 8

Q: And the survivor count (dose: 320.0 mg/kg/injection, schedule: Q01DX009 (ip), vehicle: water)?
A: 0 of 10 and 7 of 10

Q: And the survivor count (dose: 640.0 mg/kg/injection, schedule: Q01DX009 (ip), vehicle: water)?
A: 0 of 10 (2×)

Reference: PubChem BioAssay AID194 (DTP/NCI, 2004)
